PubChem BioAssay AID1224828, NIAID, 2016

- Purpose: 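Regulators linking TLR4 signalling to p65 nuclear translocation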 (primary screen)
- Cell system: mouse RAW264.7 G9 macrophage reporter cells (GFP-p65, Tnf promoter-mCherry)
- Knock-down reagent: siRNA pool against mouse genes, 100 nM
- Timing: 2 days siRNA transfection, then 40 min LPS before fixation
- Challenge: LPS (Salmonella minnesota R595) at 10 ng/ml
- Detection: 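Imaged p65 nuclear translocation ratio, normalised to the plate median, converted to robust z-scores and averaged across two replicates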
- Reading the numbers: p65 translocation robust z-score: higher = more nuclear NF-kappaB p65 after LPS than the plate median; nuclear/cytoplasmic p65 ratio: higher = more nuclear NF-kappaB p65
- Hit rule: 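Active if robust z is above 3.3 (negative regulators) or below -1.56, the Tlr4 control median (positive regulators); activity score 50 or more; control wells not called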
- Meaning of the calls: active = hit (p65 shift raised or lowered); inactive = no clear change
Here is one part, drawn at random, of about 17,000 deposited reagents. 762 of all reagents (4.5%) count as active. 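Active calls include both raised and lowered p65 entry, mostly lowered; wells with fewer than 50 cells lack a z-score.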 Raw values vary from plate to plate and are shown uncorrected. Entries without a mark were called inactive. Reagents against one gene are numbered here.

Against Arrdc4 the deposit lists p65 translocation robust z-score -1.39; nuclear/cytoplasmic p65 ratio, rep 1 = 1.32; nuclear/cytoplasmic p65 ratio, rep 2 = 1.39; low cell count flag enough cells to score.
Knock-down of Smr3a #1 gave: nuclear/cytoplasmic p65 ratio, rep 1 = 0; nuclear/cytoplasmic p65 ratio, rep 2 = 1.4; low cell count flag fewer than 50 cells per well; well left out of scoring.
Silencing of Smr3a #2 resulted in: p65 translocation robust z-score -0.31; nuclear/cytoplasmic p65 ratio, rep 1 = 1.41; nuclear/cytoplasmic p65 ratio, rep 2 = 1.19; low cell count flag enough cells to score.
Knock-down of Mcpt9 came out at: p65 translocation robust z-score -0.89; nuclear/cytoplasmic p65 ratio, rep 1 = 1.57; nuclear/cytoplasmic p65 ratio, rep 2 = 1.42; low cell count flag enough cells to score.
For Tubb4b, the values are p65 translocation robust z-score -0.51; nuclear/cytoplasmic p65 ratio, rep 1 = 1.55; nuclear/cytoplasmic p65 ratio, rep 2 = 1.52; low cell count flag enough cells to score.
With knock-down of Etv3, the screen gave p65 translocation robust z-score 1.87; nuclear/cytoplasmic p65 ratio, rep 1 = 1.85; nuclear/cytoplasmic p65 ratio, rep 2 = 1.59; low cell count flag enough cells to score.
Depletion of Cav3 gave: p65 translocation robust z-score -0.13; nuclear/cytoplasmic p65 ratio, rep 1 = 1.51; nuclear/cytoplasmic p65 ratio, rep 2 = 1.3; low cell count flag enough cells to score.
For Ifnar2, the values are p65 translocation robust z-score -1.04; nuclear/cytoplasmic p65 ratio, rep 1 = 1.2; nuclear/cytoplasmic p65 ratio, rep 2 = 1.26; low cell count flag enough cells to score.
Abca3 scored p65 translocation robust z-score 1.61; nuclear/cytoplasmic p65 ratio, rep 1 = 1.8; nuclear/cytoplasmic p65 ratio, rep 2 = 1.98; low cell count flag enough cells to score.
Against Ccl27a, the entry reads p65 translocation robust z-score 0.22; nuclear/cytoplasmic p65 ratio, rep 1 = 1.41; nuclear/cytoplasmic p65 ratio, rep 2 = 1.41; low cell count flag enough cells to score.
For Rdh7, the entry reads p65 translocation robust z-score 0.75; nuclear/cytoplasmic p65 ratio, rep 1 = 1.54; nuclear/cytoplasmic p65 ratio, rep 2 = 1.28; low cell count flag enough cells to score.
Or5ac19 showed p65 translocation robust z-score -1.55; nuclear/cytoplasmic p65 ratio, rep 1 = 1.36; nuclear/cytoplasmic p65 ratio, rep 2 = 1.24; low cell count flag enough cells to score.
Silencing of Daam2 gave: p65 translocation robust z-score 0.61; nuclear/cytoplasmic p65 ratio, rep 1 = 1.62; nuclear/cytoplasmic p65 ratio, rep 2 = 1.38; low cell count flag enough cells to score.
Plcd3 showed p65 translocation robust z-score -0.31; nuclear/cytoplasmic p65 ratio, rep 1 = 1.34; nuclear/cytoplasmic p65 ratio, rep 2 = 1.18; low cell count flag enough cells to score.
Pah gave p65 translocation robust z-score 1.42; nuclear/cytoplasmic p65 ratio, rep 1 = 1.69; nuclear/cytoplasmic p65 ratio, rep 2 = 1.55; low cell count flag enough cells to score.
Ets2 gave p65 translocation robust z-score 0.36; nuclear/cytoplasmic p65 ratio, rep 1 = 1.52; nuclear/cytoplasmic p65 ratio, rep 2 = 1.41; low cell count flag enough cells to score.
Against Prf1 the deposit lists p65 translocation robust z-score -0.71; nuclear/cytoplasmic p65 ratio, rep 1 = 1.43; nuclear/cytoplasmic p65 ratio, rep 2 = 1.29; low cell count flag enough cells to score.
Silencing of Vmn1r52 came out at: p65 translocation robust z-score 0.81; nuclear/cytoplasmic p65 ratio, rep 1 = 0; nuclear/cytoplasmic p65 ratio, rep 2 = 1.32; low cell count flag enough cells to score.
After knock-down of Ina the results were p65 translocation robust z-score -0.59; nuclear/cytoplasmic p65 ratio, rep 1 = 1.46; nuclear/cytoplasmic p65 ratio, rep 2 = 1.32; low cell count flag enough cells to score.
With knock-down of Nfyb, the record shows p65 translocation robust z-score -0.8; nuclear/cytoplasmic p65 ratio, rep 1 = 1.35; nuclear/cytoplasmic p65 ratio, rep 2 = 1.3; low cell count flag enough cells to score.
With knock-down of Gp5 the results were p65 translocation robust z-score -0.63; nuclear/cytoplasmic p65 ratio, rep 1 = 1.31; nuclear/cytoplasmic p65 ratio, rep 2 = 1.33; low cell count flag enough cells to score.
With knock-down of Ccdc42 the results were p65 translocation robust z-score 1.14; nuclear/cytoplasmic p65 ratio, rep 1 = 1.44; nuclear/cytoplasmic p65 ratio, rep 2 = 1.69; low cell count flag enough cells to score.
With knock-down of Krt31, the record shows p65 translocation robust z-score 0.94; nuclear/cytoplasmic p65 ratio, rep 1 = 1.79; nuclear/cytoplasmic p65 ratio, rep 2 = 1.46; low cell count flag enough cells to score.
For Adra2a, the values are p65 translocation robust z-score 1.32; nuclear/cytoplasmic p65 ratio, rep 1 = 1.62; nuclear/cytoplasmic p65 ratio, rep 2 = 1.85; low cell count flag enough cells to score.
With knock-down of Gstt1 the results were p65 translocation robust z-score 0.32; nuclear/cytoplasmic p65 ratio, rep 1 = 1.45; nuclear/cytoplasmic p65 ratio, rep 2 = 1.44; low cell count flag enough cells to score.
After knock-down of Ttc5, the record shows p65 translocation robust z-score -1.51; nuclear/cytoplasmic p65 ratio, rep 1 = 1.2; nuclear/cytoplasmic p65 ratio, rep 2 = 1.05; low cell count flag enough cells to score.
Knock-down of D930030O05Rik resulted in: p65 translocation robust z-score 0.54; nuclear/cytoplasmic p65 ratio, rep 1 = 1.7; nuclear/cytoplasmic p65 ratio, rep 2 = 1.58; low cell count flag enough cells to score.

Ordered by “nuclear/cytoplasmic p65 ratio, rep 1” (descending): some entries from above
Pah → p65 translocation robust z-score = 1.42; nuclear/cytoplasmic p65 ratio, rep 1 = 1.69; nuclear/cytoplasmic p65 ratio, rep 2 = 1.55; low cell count flag = enough cells to score
Plcd3 → p65 translocation robust z-score = -0.31; nuclear/cytoplasmic p65 ratio, rep 1 = 1.34; nuclear/cytoplasmic p65 ratio, rep 2 = 1.18; low cell count flag = enough cells to score
